Data published in publication PMC4299599, “Quantification of cytosolic interactions identifies Ede1 oligomers as key organizers of endocytosis” (Molecular Systems Biology, 2014).
No constants are given. Whether binding was seen depends on the method and setting.

T1: Sla1 (S. cerevisiae), P32790
T1 chain: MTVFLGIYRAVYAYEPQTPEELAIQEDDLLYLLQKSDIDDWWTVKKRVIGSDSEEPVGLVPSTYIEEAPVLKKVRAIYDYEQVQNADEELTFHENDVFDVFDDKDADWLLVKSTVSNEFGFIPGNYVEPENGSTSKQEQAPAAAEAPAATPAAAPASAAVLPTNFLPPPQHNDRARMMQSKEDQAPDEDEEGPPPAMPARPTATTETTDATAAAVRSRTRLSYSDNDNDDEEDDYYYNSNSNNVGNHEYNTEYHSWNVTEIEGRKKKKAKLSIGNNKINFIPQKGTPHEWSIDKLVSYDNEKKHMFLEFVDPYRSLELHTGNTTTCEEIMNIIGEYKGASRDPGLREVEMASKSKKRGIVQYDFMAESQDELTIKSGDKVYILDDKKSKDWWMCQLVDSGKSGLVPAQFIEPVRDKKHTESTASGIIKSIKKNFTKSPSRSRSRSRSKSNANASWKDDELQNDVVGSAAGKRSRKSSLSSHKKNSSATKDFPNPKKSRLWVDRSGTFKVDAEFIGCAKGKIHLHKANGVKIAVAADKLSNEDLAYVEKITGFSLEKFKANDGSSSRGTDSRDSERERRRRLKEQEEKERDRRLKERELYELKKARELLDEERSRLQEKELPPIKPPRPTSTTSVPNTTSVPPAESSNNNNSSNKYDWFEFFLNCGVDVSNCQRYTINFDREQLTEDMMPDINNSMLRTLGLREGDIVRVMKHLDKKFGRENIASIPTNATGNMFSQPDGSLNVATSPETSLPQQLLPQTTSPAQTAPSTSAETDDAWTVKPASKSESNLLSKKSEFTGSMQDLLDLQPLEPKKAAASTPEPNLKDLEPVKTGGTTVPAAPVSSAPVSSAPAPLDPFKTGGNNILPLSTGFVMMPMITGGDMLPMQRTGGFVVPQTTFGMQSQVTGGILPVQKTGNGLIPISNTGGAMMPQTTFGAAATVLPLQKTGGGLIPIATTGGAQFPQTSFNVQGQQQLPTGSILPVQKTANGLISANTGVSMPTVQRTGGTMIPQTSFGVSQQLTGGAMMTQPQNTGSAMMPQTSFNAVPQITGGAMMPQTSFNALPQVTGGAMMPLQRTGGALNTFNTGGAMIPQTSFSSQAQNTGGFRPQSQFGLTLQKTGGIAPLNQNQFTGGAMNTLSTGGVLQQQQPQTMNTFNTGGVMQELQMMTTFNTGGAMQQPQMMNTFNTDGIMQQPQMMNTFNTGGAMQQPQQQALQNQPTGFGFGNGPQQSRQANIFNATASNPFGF


What was measured:
[1] = target: T1, Sla1 (S. cerevisiae), P32790; assay: condition: detection range of FCCS: apparent KD up to ~1 μM; fluorescence cross-correlation spectroscopy (FCCS); living yeast cells, observation volume in the cytoplasm; one protein tagged with (3)myeGFP/eGFP and the other with 3mCherry in the same strain; apparent (effective) KD; interactions up to ~1 μM detectable; conditions: remark: other sources report otherwise
[2] = target: T1, Sla1 (S. cerevisiae), P32790; assay: condition: 1000 nM (only Kdeff-values < 1000 nM are shown); fluorescence cross-correlation spectroscopy (FCCS); in the cytoplasm of living yeast cells; first-named protein green (3myeGFP or 1myeGFP; eGFP for Don1), second red (3mCherry); self-interaction in diploid strains with one allele of each colour; apparent or effective KD (Kdeff) from single-cell measurements; only Kdeff values < 1000 nM are shown; values for …; conditions: remark: other sources report otherwise

| binding [1] | binding [2] | Binder |
| --- | --- | --- |
| no binding | no binding | Pan1, P32521 1-1480 (protein) MYNPYQQQGMGYQQQQQQQQQQPNGFYPQQQQGQSSNQPQGQPQPQQQMAFNQPQATGIGGMPQSFGNSFSSMPQQPQTGYNNNGNNGSVYGNGNFGQQPQQQQQQAKPQHTGYVPNSSMPMMNTTGTMPPPNPAQQPQLQSIQPQGTGYYQAANTANVHSVQPLQSQGTGYYVSTPNLISSNQTQQPLQAQGTGYYQSQPQQVPPPQQAQSLQPLKPQQTGFYLQPQNQAPLEPLKPTATGFVNSFANNGLNNDIKIPAIRLSFITAQDQAKFETLFRSIVTNGSNTVSGANCRKILMRSGLPPSQLARIWTLCDTSKAGELLFPEFALAMHLINDVLQGDTIPYELDSKTKNEVSSFIDAINLSIANQDSSANDAPKTPFDEFITAGVQNLQPQPTGYMPQTSFGIPLQSQITGGGVASALNPQSTGFMAPTTFNMSMNTGTPGLNPQITGGAPASMQPNITGNALQPQTTGMMPQTTGMMPQTTGMMPQTSFGVNLGPQLTGGALQSQYTGGYGSVMPQQSGPASMPNLSFNQQGLQSQLTGLQPQPTGFLPPSNFSATMPLTAQKTGFGNNEIYTKSNFNNNLIDNSSQDKISTEEKSLFYKIFETFDTQNKGLLDSPTAVEIFRKSGLNRADLEQIWNLCDINNTGQLNKQEFALGMHLVYGKLNGKPIPNVLPSSLIPSSTKLLDNLKNQLKTEPTTTKEKPSFGKIDALSYKNNDDDVLPNYRNRRKVYSAKNEEQSSFSSPSAKSVNHSSSTLQTDDISVDKTVEKKTAKPKYAGFSREINLKNIASLENEIKNISNPENCYDSSIPSDLTSRFDAIIAKLPNLFNEISTIDNEITNAKIQLYRKKNPSSIIGSGPNGEITENDRKKAKSRALLRARMSALTGKSTESEDSLSMEDEQQSAEIKRIQQENGKNQEIIKDIRSSISDISASLKSTMTGSNMISNQEFERWEFGIGLEDGVREFLDDLKSNSNKSVTESSPFVPSSTPTPVDDRSSSPSYSQFKTAEERAAYLKEQAKKRMKEKLAKFDKNRRNVTQSSRSISSENSREQPQQIAGSSNLVEPRATPFQEEKYVEVAQPTQPVQSTQPVQPTQPVQPTQPVQPTQPVQPTQPVQPTQPVQNVYNAKQESDDEDEDDEEKRLQEELKRLKLKKKADKEKRLAALRKQIEDAQNESDEEETNGKDNFGGHVNVPQAAPVAPSAAFSQNSTNAPRSVHAAVTPAAGKNSTGLPSTTMGHNPYFKDASASSTSTFDARAAEMQRRIQRGLDEDEDDGWSDEDESNNRVAVDNKVEEAKIGHPDHARAPPVTAAPLPSVTPVPPAVPVPQANTSNEKSSPIPIAPIPPSVTQEPPVPLAPPLPAVDGFQEPPIPSAPAIATAVQKSGSSTPALAGGVLPPPPPLPTQQASTSEPIIAHVDNYNGAEKGTGAYGSDSDDDVLSIPESVGTDEEEEGAQPVSTAGIPSIPPAGIPPPPPLP |
| no binding | no binding | End3, P39013 1-349 (protein) MPKLEQFEIKKYWQIFSGLKPIENKVNHDQVLPILYNSKLDSSVLNKIWFLADIDDDDNLDFEEFVICMRLIFDMVNKNISSVPDELPDWLIPGSKVNLIKERKKRKQIENADLPPKKEIKVDWYMSPDDLNQYEKIYNSCAKLTDGTITFNELSTKLSTKFFNISKTDLNKVWSLINPQNLPSIDRDPTFYFIHCLRQRNDLGAEIPASLPNSLAEVCNKKQLSYDLRSSQPPTKRKEEANEVDNLRDNGQNSSSDSSGSNVLSNEDSIKQKYASLTDDQVANMREQLEGLLNYKKSEKTQGGSKLSKRINIRSITDDLDNIEQQVEVLENYLNNKRHELQALQAEIN |
